# From PubChem BioAssay AID540256 (National Center for Advancing Translational Sciences (NCATS), 2011)
# Screen size: about 300,000 compounds; about 3,700 (1.2%) were called active. This list was built around the results that the source calls inconclusive (neither active nor inactive); the mix of calls is not that of the screen. The call rests on the fitted dose curve; tested in HEK293 cells. Where the call is inconclusive, the potency comes from a doubtful curve fit.
# Assay: qHTS for Inhibitors of binding or entry into cells for Lassa Virus; further: nearly all actives have a fitted effect of over 50% in size
# Settings: Lassa virus pseudotype entry inhibition, cell reporter; activity change, negative = inhibition: at 37.9 µM (top of the series) unless noted
# On the % scale 0 is the no-effect control and ±100 the full control effect; potency means the concentration at half of the fitted maximal effect.
Compound,Potency,"activity change, negative = inhibition"
CCCCOC(=O)c1ccc(NC(=O)c2c(Cl)ccc(Cl)c2OC)cc1,"inconclusive: 35.5 µM [inhibitor, single point]",–
Cc1c(OC(C)C(=O)NCc2ccncc2)ccc2c3c(c(=O)oc12)CCCC3 (stereo unspecified),"inconclusive: 25.1 µM [inhibitor, single point]",–
CN(C)CCNC(=O)/C(=C/c1ccc(-c2ccc(Cl)cc2Cl)o1)NC(=O)c1ccccc1,"inconclusive: 28.2 µM [inhibitor, single point]",–
COc1cccc(C(C)NC(=S)NCc2ccc(Cl)cc2)c1 (stereo unspecified),"inconclusive: 1.26 µM [inhibitor, partial curve, poor fit]",–
CCC(C)[C@H](N)c1nnc(SCc2ccc(Cl)c(Cl)c2)o1 (stereo partly specified),inactive,–
c1ccc(Oc2nc(-c3ccccn3)nc3ccccc23)cc1,"inconclusive: 35.5 µM [activator, single point]",–
Cc1ccccc1NC(=S)NC1CCCC1,"inconclusive: 31.6 µM [activator, single point]",–
CC1=C(C(=O)OC2CCCCC2)C(c2ccccc2)NC(=O)N1 (stereo unspecified),"inconclusive: 35.5 µM [inhibitor, single point]",–
Cc1nn(-c2ccccc2)c2c1C(c1ccc([N+](=O)[O-])cc1)N1C(=N2)C(=O)Nc2ccccc21 (stereo unspecified),"inconclusive: 35.5 µM [inhibitor, single point]",–
NS(=O)(=O)c1cccc(-c2ccc3c(NC(=O)C4CC4)n[nH]c3c2)c1,"inconclusive: 9.96 µM [inhibitor, full curve]",–
Cc1ccccc1/C=C\c1nc2ccccc2c(=O)[nH]1,"inconclusive: 10 µM [inhibitor, partial curve, poor fit]",–
CSc1ccccc1N1CCN(CCCCCC(=O)NC2CCCc3ccccc32)CC1 (stereo unspecified),active: 11.6 µM,–
COc1ccc(NC(=O)CSc2cn(CCNC(=O)c3ccc(OC)cc3)c3ccccc23)cc1,"inconclusive: 3.55 µM [inhibitor, partial curve, poor fit]",–
COc1cccc(/C=C(\C#N)C(=O)Nc2ccc(NC(C)=O)cc2)c1OC,"inconclusive: 25.1 µM [activator, single point]",–
Cc1c(C(=O)N2CCN(c3ncccn3)CC2)sc2nc3n(c(=O)c12)CCCC3,inactive,–
O=C(Nc1nc(-c2ccccc2)cs1)c1ccc(S(=O)(=O)N2CCc3ccccc32)cc1,"inconclusive: 3.66 µM [inhibitor, full curve, poor fit]",–
CCOC(=O)c1c(NC(=O)CSc2nnc(-c3c[nH]c4ccccc34)n2CCOC)sc2c1CCCC2,"inconclusive: 4.11 µM [inhibitor, full curve, poor fit]",–
Cc1ccc(CN2C(=O)C3(c4ccccc42)N(c2ccc(C)c(Cl)c2)C(=O)CS3(=O)=O)cc1 (stereo unspecified),"inconclusive: 15.8 µM [inhibitor, partial curve, poor fit]",–
C=CCOCCN(C)C1=NS(=O)(=O)c2ccccc21,"inconclusive: 4.47 µM [inhibitor, full curve, poor fit]",–
C[C@H]1O[C@@H](O[C@H]2[C@@H](O)C[C@H](O[C@H]3[C@@H](O)C[C@H](O[C@H]4CC[C@@]5(C)[C@H](CC[C@@H]6[C@@H]5C[C@@H](O)[C@]5(C)[C@@H](C7=CC(=O)OC7)CC[C@]65O)C4)O[C@@H]3C)O[C@@H]2C)C[C@H](O)[C@@H]1O,active: 0.146 µM,–
CCOC(=O)C1CCN(C(=O)Nc2ccc(OCc3ccccc3)cc2)CC1,"inconclusive: 4.47 µM [inhibitor, single point]",–
CCOC(=O)c1oc2ccccc2c1CN1CCN(c2ccccc2)CC1,"inconclusive: 14.6 µM [inhibitor, partial curve, poor fit]",–

Compound,Potency,"activity change, negative = inhibition"
O=C(Nc1ccc([N+](=O)[O-])cc1)c1ccc(S(=O)(=O)N2CCCC2)cc1,–,inconclusive: 0.244% [activator] [at 46.1 µM]
Cc1ccc(S(=O)(=O)N/N=C\c2ccc([N+](=O)[O-])o2)cc1C,"inconclusive: 11.2 µM [inhibitor, partial curve, poor fit]",–
Cc1ccsc1/C=N/NC(=O)c1ccc(Cn2cc(Br)cn2)o1,"inconclusive: 14.1 µM [inhibitor, single point]",–
Cc1sc(NC(=O)Nc2ccccc2)c(C(N)=O)c1C,inactive,–
CCCN1C(=O)C(Cc2nc3ccccc3c(=O)n2CC)c2cc(Br)ccc21 (stereo unspecified),inactive,–
COc1ccc2nc(NC(=O)c3ccc([N+](=O)[O-])o3)sc2c1,"inconclusive: 35.5 µM [inhibitor, single point]",–
O=C(COc1ccc2c(c1)CCC2)NCc1ccccc1,"inconclusive: 12.6 µM [inhibitor, partial curve, poor fit]",–
CC(=O)N1CCN(C(=O)CC2OC(=O)c3ccccc32)CC1 (stereo unspecified),inactive,–
Oc1c(CN2CCCCC2)cc(COCc2ccccc2)c2cccnc12,active: 2.24 µM,–
Cc1ccc2cn[nH]c2c1NC(=S)NC(=O)c1ccccc1,inactive,–
CCOC(=O)N1CCN(Cc2nc(-c3cccc(C)c3)no2)CC1,"inconclusive: 9.2 µM [inhibitor, partial curve]",–
CC(=O)Nc1cccc(NC(=O)CSc2nc(=O)n(CCN3CCOCC3)c3c2CCCC3)c1,"inconclusive: 6.31 µM [activator, single point]",–
Cc1ccc(S(=O)(=O)NCCSc2nnnn2-c2ccccc2)cc1,inactive,–
Cc1oc2ccc(O)c(CN3CCC(C)CC3)c2c1C(=O)Nc1ccccc1,"inconclusive: 12.6 µM [inhibitor, partial curve, poor fit]",–
COc1ccc(Cl)cc1S(=O)(=O)NC(C)C(=O)NCc1ccc2c(c1)OCO2 (stereo unspecified),"inconclusive: 5.62 µM [inhibitor, single point]",–
Cc1ccc(C(=O)Nc2cc([N+](=O)[O-])ccc2C)cc1,inactive,–
C=CCn1c(SCc2nc3ccccc3nc2C)nnc1-c1ccoc1C,inactive,–
O=C(CNCc1ccco1)Nc1ccc(N2CCCCCC2)cc1,inactive,–
Cc1ccc(CNC(=O)/C=C/c2cccs2)cc1,inactive,–
CC1=C(C(=O)Nc2ccccc2)C(c2ccc(O)cc2)n2nc(-c3ccc(Cl)cc3)nc2N1 (stereo unspecified),"inconclusive: 35.5 µM [inhibitor, single point]",–
CCOC(=O)C1(CCCc2ccccc2)CCN(C2CCCC2)CC1,"inconclusive: 11.2 µM [inhibitor, partial curve, poor fit]",–
CCOc1ccc(CCNC(=O)c2c3c(nc4ccccc24)C(=O)N(C2CCCCC2)C3)cc1,inactive,–

# Of the compounds above, 2 have bromine:
Compound,Potency,"activity change, negative = inhibition"
Cc1ccsc1/C=N/NC(=O)c1ccc(Cn2cc(Br)cn2)o1,"inconclusive: 14.1 µM [inhibitor, single point]",–
CCCN1C(=O)C(Cc2nc3ccccc3c(=O)n2CC)c2cc(Br)ccc21 (stereo unspecified),inactive,–

# Later entries

Compound,Potency,"activity change, negative = inhibition"
CC(=O)Nc1ccc(NC(=O)C(C)N2CCN(S(=O)(=O)c3ccc(C)cc3)CC2)cc1 (stereo unspecified),"inconclusive: 0.316 µM [inhibitor, partial curve, poor fit]",–
Cc1ccc(S(=O)(=O)N2CCCc3cc(NC(=O)c4ccc(Cl)cc4)ccc32)cc1,"inconclusive: 35.5 µM [inhibitor, single point]",–
Cc1onc(-c2ccccc2)c1C(=O)N/N=C/c1ccc([N+](=O)[O-])s1,"inconclusive: 29.1 µM [inhibitor, single point]",–
COC(=O)c1c(NC(=O)C2COc3ccccc3O2)sc2c1CCN(C(C)=O)C2 (stereo unspecified),"inconclusive: 35.5 µM [inhibitor, single point]",–
O=C1COc2ccc(-c3csc(NCC4CCCO4)n3)cc2N1 (stereo unspecified),"inconclusive: 1.3 µM [inhibitor, partial curve, poor fit]",–
CC(C)(C)C1CCc2c(sc3nc(-c4cc5cc(Cl)ccc5oc4=O)[nH]c(=O)c23)C1 (stereo unspecified),inactive,–
CN1C(=O)/C(=C/c2ccccc2F)Sc2ccc(C(=O)N3CCCC3)cc21,"inconclusive: 11.2 µM [inhibitor, partial curve, poor fit]",–
c1coc(-c2nnc(-c3cccs3)o2)c1,"inconclusive: 4.11 µM [activator, full curve]",–
COc1ccc(N2CCN(C(=O)c3[nH]c4ccc(OC)cc4c3C)CC2)cc1,inactive,–
COc1ccccc1N(Cc1ccccc1)S(=O)(=O)c1cccc(C(=O)Nc2ccccn2)c1,"inconclusive: 1.58 µM [inhibitor, partial curve, poor fit]",–
CO/N=C/NC(=O)N1OC[C@@H]2COc3ccc4ccccc4c3[C@@H]21,inactive,–
CCCCNC(=O)NNC(=O)c1ccoc1C,inactive,–
Cc1cccc(C)c1OCCn1nc(C(=O)O)c2ccccc2c1=O,active: 6.31 µM,–
CN(C)c1ccc(C(=S)N2CCCCC2)cc1,inactive,–
O=C(Nc1cccc(C(F)(F)F)c1)c1cccc(NS(=O)(=O)c2ccc(Br)c(C(=O)O)c2)c1,"inconclusive: 35.5 µM [inhibitor, single point]",–
CC(C)C(O)(C#CCN1CCCCCC1)c1ccccc1 (stereo unspecified),inactive,–
COc1cc(C(=O)NC(=S)NNC(=O)c2cnccn2)cc(OC)c1OC,"inconclusive: 20 µM [inhibitor, partial curve, poor fit]",–
CC1CCCC(NC(=O)COC(=O)Cc2cn3ccsc3n2)C1C (stereo unspecified),"inconclusive: 0.891 µM [inhibitor, single point]",–
COc1cccc(C(=O)Nc2nnc(C(C)C)s2)c1,"inconclusive: 11.2 µM [inhibitor, partial curve, poor fit]",–
O=C(C1CCCN(c2ncnc3c2nc2n3CCCCC2)C1)N1CCN(c2ccc(F)cc2)CC1 (stereo unspecified),"inconclusive: 35.5 µM [inhibitor, single point]",–
CNC(=O)c1cc2c(-c3ccccc3)nn(C)c2s1,inactive,–
N#Cc1cccc(NC(=O)CNc2cc(S(=O)(=O)N3CCOCC3)ccc2N2CCCC2)c1,"inconclusive: 22.4 µM [inhibitor, partial curve, poor fit]",–

# An excerpt from above in order of number of heavy atoms, smallest number first.
Compound,Potency,"activity change, negative = inhibition"
CNC(=O)c1cc2c(-c3ccccc3)nn(C)c2s1,inactive,–
O=C(CNCc1ccco1)Nc1ccc(N2CCCCCC2)cc1,inactive,–
Cc1nn(-c2ccccc2)c2c1C(c1ccc([N+](=O)[O-])cc1)N1C(=N2)C(=O)Nc2ccccc21 (stereo unspecified),"inconclusive: 35.5 µM [inhibitor, single point]",–
